{"source": "the supplement of paper PMC10689618", "note": "Structures can show the parent of a compound that is named as a salt. Some of the results follow. Repeats are few or missing, and single values can be far off.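 Labelled rat cortical synaptosomes were engulfed by primary human fetal astrocytes. Engulfment equaled a red/green ratio, corrected for calcein live-cell signal and normalized to the plate median. Compounds were toxic when calcein dropped over 30%, and reduced phagocytosis when below 70% of the median above 5 µM.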", "data": [{"tested_on": "Human fetal astrocytes", "experiment": "loss of total cells relative to no-compound high-control median (toxicity); higher = more toxic (fewer cells)", "details": "5.56 µM; 24 h", "units": {"loss of total cells": "%"}, "values": [{"smiles": "Cc1cc2c(cc1Cl)N(C(=O)Nc1cccc3ncccc13)CC2", "loss of total cells": -2.3}, {"smiles": "CNCC[C@@H](Oc1ccccc1C)c1ccccc1", "note": "[Tomoxetine]", "loss of total cells": -1.1}, {"smiles": "CCSC(N)=Nc1ccc(C(F)(F)F)cc1", "note": "[TFPI hydrochloride]", "loss of total cells": -9}, {"smiles": "NCCCCNS(=O)(=O)c1ccc2c(Cl)cccc2c1", "loss of total cells": -9.7}, {"smiles": "CC1CCN(CC[C@H]2CCCN2S(=O)(=O)c2cccc(O)c2)CC1", "loss of total cells": 6.2}, {"smiles": "OC[C@H]1O[C@@H](n2cnc3c(Nc4ccccc4)ncnc32)[C@H](O)[C@@H]1O", "note": "[N6-Phenyladenosine]", "loss of total cells": -13.5}, {"smiles": "CNCC[C@H](Oc1ccc(C(F)(F)F)cc1)c1ccccc1", "note": "[S-(+)-Fluoxetine hydrochloride]", "loss of total cells": -12.3}, {"smiles": "Nc1nc(Cl)nc2c1ncn2[C@@H]1O[C@H](CO)[C@@H](O)[C@H]1O", "note": "[2-Chloroadenosine]", "loss of total cells": -17.1}, {"smiles": "C#C[C@]1(O)CC[C@H]2[C@@H]3CCC4=Cc5oncc5C[C@]4(C)[C@H]3CC[C@@]21C", "note": "[Danazol]", "loss of total cells": -2.5}, {"smiles": "N#C/C(=C\\c1ccc(O)c(O)c1)C(=O)c1ccc(O)c(O)c1", "note": "[Tyrphostin AG 538]", "loss of total cells": -2.8}, {"smiles": "NCC(O)c1ccc(O)c(O)c1", "note": "(racemic) [(±)-Norepinephrine (+)bitartrate]", "loss of total cells": 16.1}, {"smiles": "CN1CCN(CCCN2c3ccccc3Sc3ccc(Cl)cc32)CC1", "note": "[Prochlorperazine dimaleate]", "loss of total cells": -7.3}, {"smiles": "CCOC(=O)c1cnc2c(cnn2CC)c1NN=C(C)C", "note": "[Etazolate hydrochloride]", "loss of total cells": -16.5}, {"smiles": "NC/C=C/C(=O)O", "note": "[(E)-4-amino-2-butenoic acid]", "loss of total cells": 0.6}, {"smiles": "CCn1nc(C(=O)O)c(=O)c2cc3c(cc21)OCO3", "note": "[Cinoxacin]", "loss of total cells": -5.1}, {"smiles": "CC(C)(C)[C@]1(O)CCN2C[C@H]3c4ccccc4CCc4cccc(c43)[C@@H]2C1", "note": "[(+)-Butaclamol hydrochloride]", "loss of total cells": -4.1}, {"smiles": "CCCCCC(O)CCCC(=O)O", "note": "(stereo not given) [5-hydroxydecanoic acid sodium]", "loss of total cells": -9.1}, {"smiles": "CC(C)C1C2CCC(C2)C1N", "note": "(stereo not given)", "loss of total cells": -7.8}, {"smiles": "CC1(C)CCC2=C(O1)c1ccccc1C(=O)C2=O", "note": "[beta-Lapachone]", "loss of total cells": 4.2}, {"smiles": "Brc1c(NC2=NCCN2)ccc2nccnc12", "loss of total cells": -2.2}, {"smiles": "O=C1NC(=O)C(c2ccccc2)(c2ccccc2)N1", "note": "[5,5-Diphenylhydantoin]", "loss of total cells": 3.3}, {"smiles": "CN(C)c1ccc(/C=C2/C(=O)Nc3ccccc32)cc1", "loss of total cells": 4.5}, {"smiles": "CC(=O)NC(C(=O)O)C(C)(C)SN=O", "note": "(stereo not given) [S-Nitroso-N-acetylpenicillamine]", "loss of total cells": -14.6}, {"smiles": "COc1ccccc1N1CCN(CCN2C(=O)CC3(CCCC3)CC2=O)CC1", "note": "[BMY 7378 dihydrochloride]", "loss of total cells": -16.1}, {"smiles": "CN1[C@@H]2CC[C@H]1CC(OC(=O)c1c[nH]c3ccccc13)C2", "note": "(stereo not given in full) [3-Tropanyl-indole-3-carboxylate hydrochloride]", "loss of total cells": -7.3}, {"smiles": "N=C(N)SCCc1ccc(CCSC(=N)N)cc1", "note": "[1,4-PBIT dihydrobromide]", "loss of total cells": -6.7}, {"smiles": "CC(CCc1ccc(O)cc1)NCCc1ccc(O)c(O)c1", "note": "(stereo not given) [Dobutamine hydrochloride]", "loss of total cells": 12.3}, {"smiles": "CC[N+](C)(C)Cc1ccccc1Br", "note": "[Bretylium tosylate]", "loss of total cells": -0.5}, {"smiles": "N#C/C(=C\\c1ccc(O)c(O)c1)C(=O)Nc1ccccc1", "note": "[Tyrphostin AG 494]", "loss of total cells": -5.1}, {"smiles": "Brc1ccc([C@H]2CN3CCSC3=N2)cc1", "note": "[S(-)-p-Bromotetramisole oxalate]", "loss of total cells": 5.1}, {"smiles": "CN1C2CCC1CC(NC(=O)c1nn(C)c3ccccc13)C2", "note": "(stereo not given) [LY-278,584 maleate]", "loss of total cells": 4.2}, {"smiles": "C=C[C@H]1CN2CC[C@H]1C[C@H]2[C@H](O)c1ccnc2ccc(OC)cc12", "note": "[Quinine sulfate]", "loss of total cells": -10.7}, {"smiles": "NCCCCCCCCCCN", "note": "[1,10-Diaminodecane]", "loss of total cells": 4.1}, {"smiles": "Cl.N[C@@H](CCC(=O)O)C(=O)O", "note": "[L-Glutamic acid hydrochloride]", "loss of total cells": 7.4}, {"smiles": "CCC(=O)c1ccc2c(c1)N(CCCN(C)C)c1ccccc1S2", "note": "[Propionylpromazine hydrochloride]", "loss of total cells": -3.4}, {"smiles": "NC(=O)OCC(COC(N)=O)c1ccccc1", "note": "[Felbamate]", "loss of total cells": 4.9}, {"smiles": "CNC(=O)c1cc2c(cn1)[nH]c1ccccc12", "note": "[N-Methyl-beta-carboline-3-carboxamide]", "loss of total cells": -15.6}, {"smiles": "CCCCCCCCCC(=O)NC(CN1CCOCC1)[C@H](O)c1ccccc1", "note": "(mixture of isomers)", "loss of total cells": -12.9}, {"smiles": "COc1cc2c(cc1OC)-c1c/c(=N\\c3c(C)cc(C)cc3C)n(C)c(=O)n1CC2", "note": "[Trequinsin hydrochloride]", "loss of total cells": -9}, {"smiles": "COC1(C2=NCCN2)COc2ccccc2O1", "note": "(stereo not given)", "loss of total cells": 7.3}]}, {"tested_on": "Human fetal astrocytes", "experiment": "loss of total cells relative to no-compound high-control median (toxicity); higher = more toxic (fewer cells)", "details": "11.11 µM; 24 h", "units": {"loss of total cells": "%"}, "values": [{"smiles": "Cc1cc2c(cc1Cl)N(C(=O)Nc1cccc3ncccc13)CC2", "loss of total cells": 4.8}, {"smiles": "CNCC[C@@H](Oc1ccccc1C)c1ccccc1", "note": "[Tomoxetine]", "loss of total cells": 3.4}, {"smiles": "CCSC(N)=Nc1ccc(C(F)(F)F)cc1", "note": "[TFPI hydrochloride]", "loss of total cells": -15.7}, {"smiles": "NCCCCNS(=O)(=O)c1ccc2c(Cl)cccc2c1", "loss of total cells": 1.3}, {"smiles": "CC1CCN(CC[C@H]2CCCN2S(=O)(=O)c2cccc(O)c2)CC1", "loss of total cells": 13.4}, {"smiles": "OC[C@H]1O[C@@H](n2cnc3c(Nc4ccccc4)ncnc32)[C@H](O)[C@@H]1O", "note": "[N6-Phenyladenosine]", "loss of total cells": -28.7}, {"smiles": "CNCC[C@H](Oc1ccc(C(F)(F)F)cc1)c1ccccc1", "note": "[S-(+)-Fluoxetine hydrochloride]", "loss of total cells": -30}, {"smiles": "Nc1nc(Cl)nc2c1ncn2[C@@H]1O[C@H](CO)[C@@H](O)[C@H]1O", "note": "[2-Chloroadenosine]", "loss of total cells": 13}, {"smiles": "C#C[C@]1(O)CC[C@H]2[C@@H]3CCC4=Cc5oncc5C[C@]4(C)[C@H]3CC[C@@]21C", "note": "[Danazol]", "loss of total cells": 0.4}, {"smiles": "N#C/C(=C\\c1ccc(O)c(O)c1)C(=O)c1ccc(O)c(O)c1", "note": "[Tyrphostin AG 538]", "loss of total cells": -0.4}, {"smiles": "NCC(O)c1ccc(O)c(O)c1", "note": "(racemic) [(±)-Norepinephrine (+)bitartrate]", "loss of total cells": 7.6}, {"smiles": "CN1CCN(CCCN2c3ccccc3Sc3ccc(Cl)cc32)CC1", "note": "[Prochlorperazine dimaleate]", "loss of total cells": 0.4}, {"smiles": "CCOC(=O)c1cnc2c(cnn2CC)c1NN=C(C)C", "note": "[Etazolate hydrochloride]", "loss of total cells": -6.7}, {"smiles": "NC/C=C/C(=O)O", "note": "[(E)-4-amino-2-butenoic acid]", "loss of total cells": -2.7}, {"smiles": "CCn1nc(C(=O)O)c(=O)c2cc3c(cc21)OCO3", "note": "[Cinoxacin]", "loss of total cells": 1.3}, {"smiles": "CC(C)(C)[C@]1(O)CCN2C[C@H]3c4ccccc4CCc4cccc(c43)[C@@H]2C1", "note": "[(+)-Butaclamol hydrochloride]", "loss of total cells": -13}, {"smiles": "CCCCCC(O)CCCC(=O)O", "note": "(stereo not given) [5-hydroxydecanoic acid sodium]", "loss of total cells": -28.3}, {"smiles": "CC(C)C1C2CCC(C2)C1N", "note": "(stereo not given)", "loss of total cells": -7.6}, {"smiles": "CC1(C)CCC2=C(O1)c1ccccc1C(=O)C2=O", "note": "[beta-Lapachone]", "loss of total cells": 13.3}, {"smiles": "Brc1c(NC2=NCCN2)ccc2nccnc12", "loss of total cells": -11.9}, {"smiles": "O=C1NC(=O)C(c2ccccc2)(c2ccccc2)N1", "note": "[5,5-Diphenylhydantoin]", "loss of total cells": 4.9}, {"smiles": "CN(C)c1ccc(/C=C2/C(=O)Nc3ccccc32)cc1", "loss of total cells": 1.9}, {"smiles": "CC(=O)NC(C(=O)O)C(C)(C)SN=O", "note": "(stereo not given) [S-Nitroso-N-acetylpenicillamine]", "loss of total cells": -3.8}, {"smiles": "COc1ccccc1N1CCN(CCN2C(=O)CC3(CCCC3)CC2=O)CC1", "note": "[BMY 7378 dihydrochloride]", "loss of total cells": -17.5}, {"smiles": "CN1[C@@H]2CC[C@H]1CC(OC(=O)c1c[nH]c3ccccc13)C2", "note": "(stereo not given in full) [3-Tropanyl-indole-3-carboxylate hydrochloride]", "loss of total cells": -18}, {"smiles": "N=C(N)SCCc1ccc(CCSC(=N)N)cc1", "note": "[1,4-PBIT dihydrobromide]", "loss of total cells": -5}, {"smiles": "CC(CCc1ccc(O)cc1)NCCc1ccc(O)c(O)c1", "note": "(stereo not given) [Dobutamine hydrochloride]", "loss of total cells": 1.3}, {"smiles": "CC[N+](C)(C)Cc1ccccc1Br", "note": "[Bretylium tosylate]", "loss of total cells": -19.3}, {"smiles": "N#C/C(=C\\c1ccc(O)c(O)c1)C(=O)Nc1ccccc1", "note": "[Tyrphostin AG 494]", "loss of total cells": 3.4}, {"smiles": "Brc1ccc([C@H]2CN3CCSC3=N2)cc1", "note": "[S(-)-p-Bromotetramisole oxalate]", "loss of total cells": -6.7}, {"smiles": "CN1C2CCC1CC(NC(=O)c1nn(C)c3ccccc13)C2", "note": "(stereo not given) [LY-278,584 maleate]", "loss of total cells": -5.7}, {"smiles": "C=C[C@H]1CN2CC[C@H]1C[C@H]2[C@H](O)c1ccnc2ccc(OC)cc12", "note": "[Quinine sulfate]", "loss of total cells": -22.6}, {"smiles": "NCCCCCCCCCCN", "note": "[1,10-Diaminodecane]", "loss of total cells": -11.2}, {"smiles": "Cl.N[C@@H](CCC(=O)O)C(=O)O", "note": "[L-Glutamic acid hydrochloride]", "loss of total cells": -17.5}, {"smiles": "CCC(=O)c1ccc2c(c1)N(CCCN(C)C)c1ccccc1S2", "note": "[Propionylpromazine hydrochloride]", "loss of total cells": -2.7}, {"smiles": "NC(=O)OCC(COC(N)=O)c1ccccc1", "note": "[Felbamate]", "loss of total cells": -4.9}, {"smiles": "CNC(=O)c1cc2c(cn1)[nH]c1ccccc12", "note": "[N-Methyl-beta-carboline-3-carboxamide]", "loss of total cells": 2.2}, {"smiles": "CCCCCCCCCC(=O)NC(CN1CCOCC1)[C@H](O)c1ccccc1", "note": "(mixture of isomers)", "loss of total cells": 8}, {"smiles": "COc1cc2c(cc1OC)-c1c/c(=N\\c3c(C)cc(C)cc3C)n(C)c(=O)n1CC2", "note": "[Trequinsin hydrochloride]", "loss of total cells": -13.4}, {"smiles": "COC1(C2=NCCN2)COc2ccccc2O1", "note": "(stereo not given)", "loss of total cells": -12.6}]}]}
